PubChem BioAssay AID652243 | Drosophila RNAi Screening Center – 2013
In all, the deposit lists about 24,000 reagents; this is a random part of those that have a named target and a result. In the full data, 246 (1%) were called active. 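Plates not normalised; calls are printed but the firefly/Renilla ratio behind them is not deposited; fold cut for lowering reported inconsistently.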 Raw values are not corrected between plates. A plus sign joins genes that one reagent is predicted to hit. Not given: the amount of reagent.

- Test: 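Knock-downs that decrease or increase androgen receptor reporter signal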 (primary screen)
- System: Drosophila S2R+ cells
- Reagents: long dsRNA against Drosophila genes
- Time to read-out: 72 h (48 h, then 24 h hormone)
- Conditions: synthetic androgen R1881 at 10 nM for 24 h
- Measurement: 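Firefly light from an androgen-responsive reporter and Renilla control light per well, raw and unnormalised, for each of two replicates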
- Scale: firefly reporter light: higher = more light from androgen-responsive reporter; Renilla control light: higher = more constitutive control signal (cell number, transfection)
- Hit rule: 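Across duplicate plates, a knock-down whose log firefly/Renilla ratio shifted a set fold down or up from the GFP/LacZ control mean was a hit; the downward cut appears as both 1.5 and 3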
- Calls: active = hit: reporter lowered or raised; inactive = no hit

caup (caupolican) [DRSC23050] — firefly reporter light, replicate 1: 5.99e5; firefly reporter light, replicate 2: 7.95e5; Renilla control light, replicate 1: 1.39e6; Renilla control light, replicate 2: 1.43e6; outcome: inactive
mfr (misfire) [DRSC10543] — firefly reporter light, replicate 1: 52382; firefly reporter light, replicate 2: 1.88e5; Renilla control light, replicate 1: 5.08e5; Renilla control light, replicate 2: 1.87e6; outcome: inactive
CG33262 [DRSC22893] — firefly reporter light, replicate 1: 7.10e5; firefly reporter light, replicate 2: 1.09e6; Renilla control light, replicate 1: 1.63e6; Renilla control light, replicate 2: 2.17e6; outcome: inactive
Sec22 (Secretory 22) [DRSC29297] — firefly reporter light, replicate 1: 4.57e5; firefly reporter light, replicate 2: 4.94e5; Renilla control light, replicate 1: 1.29e6; Renilla control light, replicate 2: 1.26e6; outcome: inactive
CG30098 [DRSC05605] — firefly reporter light, replicate 1: 1.26e5; firefly reporter light, replicate 2: 1.62e5; Renilla control light, replicate 1: 3.13e5; Renilla control light, replicate 2: 3.17e5; outcome: inactive
CG30098 [DRSC25946] — firefly reporter light, replicate 1: 3.17e5; firefly reporter light, replicate 2: 3.55e5; Renilla control light, replicate 1: 9.15e5; Renilla control light, replicate 2: 7.97e5; outcome: inactive
eIF3h (eukaryotic translation initiation factor 3 subunit h) [DRSC01995] — firefly reporter light, replicate 1: 6.44e5; firefly reporter light, replicate 2: 7.32e5; Renilla control light, replicate 1: 2.02e6; Renilla control light, replicate 2: 1.72e6; outcome: inactive
eIF3h (eukaryotic translation initiation factor 3 subunit h) [DRSC27567] — firefly reporter light, replicate 1: 3.92e5; firefly reporter light, replicate 2: 3.25e5; Renilla control light, replicate 1: 6.07e5; Renilla control light, replicate 2: 3.77e5; outcome: inactive
Start1 [DRSC04384] — firefly reporter light, replicate 1: 5.57e5; firefly reporter light, replicate 2: 6.12e5; Renilla control light, replicate 1: 1.00e6; Renilla control light, replicate 2: 1.12e6; outcome: inactive
Start1 [DRSC28343] — firefly reporter light, replicate 1: 4.11e5; firefly reporter light, replicate 2: 7.02e5; Renilla control light, replicate 1: 1.10e6; Renilla control light, replicate 2: 1.48e6; outcome: inactive

Next part, starting with the last 2 of the part before.
Start1 [DRSC04384] — firefly reporter light, replicate 1: 5.57e5; firefly reporter light, replicate 2: 6.12e5; Renilla control light, replicate 1: 1.00e6; Renilla control light, replicate 2: 1.12e6; outcome: inactive
Start1 [DRSC28343] — firefly reporter light, replicate 1: 4.11e5; firefly reporter light, replicate 2: 7.02e5; Renilla control light, replicate 1: 1.10e6; Renilla control light, replicate 2: 1.48e6; outcome: inactive
CG15128 [DRSC06550] — firefly reporter light, replicate 1: 52578; firefly reporter light, replicate 2: 88396; Renilla control light, replicate 1: 9.32e5; Renilla control light, replicate 2: 1.26e6; outcome: inactive
CG9967 [DRSC00742] — firefly reporter light, replicate 1: 2.79e5; firefly reporter light, replicate 2: 3.12e5; Renilla control light, replicate 1: 2.22e6; Renilla control light, replicate 2: 2.22e6; outcome: inactive
CG9967 [DRSC25344] — firefly reporter light, replicate 1: 1.26e6; firefly reporter light, replicate 2: 1.39e6; Renilla control light, replicate 1: 1.68e6; Renilla control light, replicate 2: 1.42e6; outcome: inactive
CG9147 [DRSC03147] — firefly reporter light, replicate 1: 2.08e5; firefly reporter light, replicate 2: 1.15e5; Renilla control light, replicate 1: 2.09e6; Renilla control light, replicate 2: 1.26e6; outcome: inactive
CG9147 [DRSC27889] — firefly reporter light, replicate 1: 7.06e5; firefly reporter light, replicate 2: 4.32e5; Renilla control light, replicate 1: 2.35e6; Renilla control light, replicate 2: 1.67e6; outcome: inactive
CG12171 [DRSC12200] — firefly reporter light, replicate 1: 58854; firefly reporter light, replicate 2: 83300; Renilla control light, replicate 1: 1.68e6; Renilla control light, replicate 2: 1.35e6; outcome: inactive
CG12171 [DRSC25540] — firefly reporter light, replicate 1: 1.36e6; firefly reporter light, replicate 2: 1.49e6; Renilla control light, replicate 1: 8.96e5; Renilla control light, replicate 2: 9.58e5; outcome: inactive
CG14377 + CG14374 [DRSC26405] — firefly reporter light, replicate 1: 2.48e5; firefly reporter light, replicate 2: 3.02e5; Renilla control light, replicate 1: 7.92e5; Renilla control light, replicate 2: 6.90e5; outcome: inactive
CG32147 [DRSC09346] — firefly reporter light, replicate 1: 1.93e5; firefly reporter light, replicate 2: 50001; Renilla control light, replicate 1: 4.25e5; Renilla control light, replicate 2: 2.14e5; outcome: inactive
CG32147 [DRSC24225] — firefly reporter light, replicate 1: 7.49e5; firefly reporter light, replicate 2: 7.47e5; Renilla control light, replicate 1: 8.68e5; Renilla control light, replicate 2: 9.03e5; outcome: inactive
tctn + B9d2 [DRSC03160] — firefly reporter light, replicate 1: 1.60e5; firefly reporter light, replicate 2: 2.02e5; Renilla control light, replicate 1: 2.16e6; Renilla control light, replicate 2: 1.56e6; outcome: inactive
